According to US20120121533, “NUCLEIC ACID LIGANDS TO LL37” (BIOTEX, INC., published 2012):
Tags and fusion partners may be left off the protein sequences shown.

Target: T1, LL37 (human cathelicidin peptide LL-37) (Homo sapiens) (UniProt P49913)
T1 sequence (looked up): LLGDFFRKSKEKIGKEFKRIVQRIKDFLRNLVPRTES
Assay: activity in cells
Settings: 5 uM aptamer greatly decreased IFN-alpha production by pDC cultures with 10 uM LL37 + genomic DNA (ELISA); single-stranded DNA

“ACTGGGTCTCACCATCGAAAATCGAAATGACTAAAAGGCC [SEQ7 (Apta#222)]” was tested, and the “functional effect of the aptamer” value was “active”.
